The other results are listed elsewhere or left out. Most values lie at the level of the controls, where differences are scatter.
What follows are targets tested with CN[C@@H]1C[C@H]2O[C@@](C)([C@@H]1OC)n1c3ccccc3c3c4c(c5c6ccccc6n2c5c31)C(=O)NC4 [staurosporine] (assay: log2 fold change of tryptic peptide abundance, ligand vs vehicle (limited proteolysis) (log2 ratio); higher = more trypsin-susceptible (destabilized)). Settings: ligand concentration: 20 uM; sample: K562 cleared lysate; digestion: 4 min, 22 C (HT-PELSA RT4min, Orbitrap Astral).

Chains of the proteins cited; added tags and fusions are not shown. Lines headed by an entry give the natural chain unless they say otherwise; changes in a name come on top.
UniProt Q9P260: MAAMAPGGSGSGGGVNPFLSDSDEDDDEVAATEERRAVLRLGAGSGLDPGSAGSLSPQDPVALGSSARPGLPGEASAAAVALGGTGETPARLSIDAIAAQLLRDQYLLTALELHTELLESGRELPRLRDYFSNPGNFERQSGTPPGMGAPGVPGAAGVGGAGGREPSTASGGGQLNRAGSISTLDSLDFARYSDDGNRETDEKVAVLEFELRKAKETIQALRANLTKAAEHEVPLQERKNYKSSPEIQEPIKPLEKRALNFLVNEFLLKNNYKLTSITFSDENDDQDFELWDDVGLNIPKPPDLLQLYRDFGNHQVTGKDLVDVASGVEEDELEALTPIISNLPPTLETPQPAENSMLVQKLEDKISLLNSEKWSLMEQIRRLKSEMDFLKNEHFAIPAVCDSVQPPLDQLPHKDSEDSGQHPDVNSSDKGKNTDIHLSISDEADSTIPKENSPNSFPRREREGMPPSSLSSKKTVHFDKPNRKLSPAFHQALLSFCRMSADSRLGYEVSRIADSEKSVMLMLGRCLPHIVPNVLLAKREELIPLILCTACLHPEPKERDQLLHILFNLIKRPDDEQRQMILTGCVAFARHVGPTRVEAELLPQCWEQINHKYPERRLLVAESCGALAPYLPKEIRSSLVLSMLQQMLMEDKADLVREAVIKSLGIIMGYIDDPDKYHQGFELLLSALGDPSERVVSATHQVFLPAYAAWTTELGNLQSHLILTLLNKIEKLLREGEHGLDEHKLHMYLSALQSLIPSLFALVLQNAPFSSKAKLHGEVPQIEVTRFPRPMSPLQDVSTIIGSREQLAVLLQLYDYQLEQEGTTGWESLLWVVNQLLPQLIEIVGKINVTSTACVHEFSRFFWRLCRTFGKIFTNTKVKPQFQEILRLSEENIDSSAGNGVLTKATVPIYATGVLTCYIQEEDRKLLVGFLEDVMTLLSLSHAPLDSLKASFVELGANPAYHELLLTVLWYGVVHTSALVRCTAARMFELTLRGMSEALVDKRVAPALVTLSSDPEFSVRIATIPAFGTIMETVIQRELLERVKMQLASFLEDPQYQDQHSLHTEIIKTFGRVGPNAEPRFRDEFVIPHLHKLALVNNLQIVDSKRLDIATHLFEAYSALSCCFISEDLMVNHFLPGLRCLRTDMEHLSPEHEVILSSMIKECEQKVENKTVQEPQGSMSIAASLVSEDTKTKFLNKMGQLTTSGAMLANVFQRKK
UniProt Q9P209, whole entry: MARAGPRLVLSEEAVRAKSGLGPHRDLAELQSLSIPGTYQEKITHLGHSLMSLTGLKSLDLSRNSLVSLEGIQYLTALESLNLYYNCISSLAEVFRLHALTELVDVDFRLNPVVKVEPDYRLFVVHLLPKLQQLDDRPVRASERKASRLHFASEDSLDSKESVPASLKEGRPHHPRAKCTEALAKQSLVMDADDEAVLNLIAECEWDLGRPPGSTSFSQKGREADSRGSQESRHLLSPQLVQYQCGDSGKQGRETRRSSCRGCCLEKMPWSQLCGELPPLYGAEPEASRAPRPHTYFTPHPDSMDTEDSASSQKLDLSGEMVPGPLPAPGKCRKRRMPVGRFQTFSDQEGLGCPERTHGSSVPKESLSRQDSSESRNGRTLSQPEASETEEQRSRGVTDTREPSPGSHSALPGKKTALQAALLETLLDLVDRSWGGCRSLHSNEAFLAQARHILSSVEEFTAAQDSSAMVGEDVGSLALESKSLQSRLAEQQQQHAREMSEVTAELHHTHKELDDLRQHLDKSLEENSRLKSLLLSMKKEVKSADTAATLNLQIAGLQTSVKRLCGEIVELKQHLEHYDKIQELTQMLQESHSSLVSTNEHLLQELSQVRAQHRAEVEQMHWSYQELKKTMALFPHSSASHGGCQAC
UniProt Q9P219: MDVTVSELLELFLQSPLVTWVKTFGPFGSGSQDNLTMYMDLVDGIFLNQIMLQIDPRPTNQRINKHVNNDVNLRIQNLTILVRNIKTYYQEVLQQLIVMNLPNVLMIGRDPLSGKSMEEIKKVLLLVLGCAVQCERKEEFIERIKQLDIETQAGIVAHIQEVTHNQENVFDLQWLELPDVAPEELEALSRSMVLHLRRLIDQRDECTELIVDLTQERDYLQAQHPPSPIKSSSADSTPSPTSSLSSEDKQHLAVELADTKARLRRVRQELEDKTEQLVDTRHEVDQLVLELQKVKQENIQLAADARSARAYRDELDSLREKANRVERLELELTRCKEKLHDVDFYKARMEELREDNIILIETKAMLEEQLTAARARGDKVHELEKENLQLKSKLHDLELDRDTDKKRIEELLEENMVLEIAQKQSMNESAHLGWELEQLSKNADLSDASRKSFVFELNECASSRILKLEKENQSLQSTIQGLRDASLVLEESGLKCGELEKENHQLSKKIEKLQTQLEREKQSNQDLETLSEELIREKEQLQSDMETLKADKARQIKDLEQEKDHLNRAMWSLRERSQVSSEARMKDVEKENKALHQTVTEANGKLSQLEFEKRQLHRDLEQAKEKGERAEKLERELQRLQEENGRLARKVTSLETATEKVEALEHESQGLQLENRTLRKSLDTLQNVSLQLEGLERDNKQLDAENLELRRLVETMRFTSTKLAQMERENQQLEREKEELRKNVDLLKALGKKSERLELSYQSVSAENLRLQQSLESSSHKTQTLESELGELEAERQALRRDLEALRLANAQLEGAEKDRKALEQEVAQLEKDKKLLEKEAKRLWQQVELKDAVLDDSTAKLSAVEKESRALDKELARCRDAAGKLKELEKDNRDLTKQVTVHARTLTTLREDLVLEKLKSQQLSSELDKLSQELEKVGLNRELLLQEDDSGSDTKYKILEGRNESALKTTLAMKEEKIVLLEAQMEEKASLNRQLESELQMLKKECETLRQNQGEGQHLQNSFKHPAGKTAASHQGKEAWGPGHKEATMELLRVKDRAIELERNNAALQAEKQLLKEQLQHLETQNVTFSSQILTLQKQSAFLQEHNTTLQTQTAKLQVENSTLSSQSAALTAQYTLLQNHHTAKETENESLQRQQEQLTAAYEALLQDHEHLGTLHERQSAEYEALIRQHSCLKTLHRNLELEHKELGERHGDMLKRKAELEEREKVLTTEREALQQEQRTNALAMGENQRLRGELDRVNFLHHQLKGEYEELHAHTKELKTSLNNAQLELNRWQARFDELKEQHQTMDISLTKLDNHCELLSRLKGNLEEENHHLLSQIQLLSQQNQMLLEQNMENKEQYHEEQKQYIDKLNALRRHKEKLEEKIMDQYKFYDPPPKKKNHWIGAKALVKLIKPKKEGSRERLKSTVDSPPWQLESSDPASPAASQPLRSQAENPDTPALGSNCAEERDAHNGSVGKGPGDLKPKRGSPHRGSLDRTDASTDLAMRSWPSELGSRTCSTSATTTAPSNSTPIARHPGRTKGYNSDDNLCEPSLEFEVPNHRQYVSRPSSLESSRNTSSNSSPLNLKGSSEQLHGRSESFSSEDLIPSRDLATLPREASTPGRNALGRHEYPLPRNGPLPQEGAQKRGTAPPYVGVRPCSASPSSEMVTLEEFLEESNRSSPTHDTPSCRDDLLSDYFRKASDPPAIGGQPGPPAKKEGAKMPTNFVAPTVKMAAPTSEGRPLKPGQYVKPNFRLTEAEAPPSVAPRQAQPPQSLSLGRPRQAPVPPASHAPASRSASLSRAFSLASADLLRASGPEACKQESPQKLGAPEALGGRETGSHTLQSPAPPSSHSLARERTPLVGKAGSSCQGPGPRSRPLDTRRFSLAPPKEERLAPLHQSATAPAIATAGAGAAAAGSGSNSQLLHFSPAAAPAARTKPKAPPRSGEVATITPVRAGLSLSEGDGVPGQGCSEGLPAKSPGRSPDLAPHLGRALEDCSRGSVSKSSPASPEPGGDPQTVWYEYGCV
UniProt Q9UJW0, whole entry: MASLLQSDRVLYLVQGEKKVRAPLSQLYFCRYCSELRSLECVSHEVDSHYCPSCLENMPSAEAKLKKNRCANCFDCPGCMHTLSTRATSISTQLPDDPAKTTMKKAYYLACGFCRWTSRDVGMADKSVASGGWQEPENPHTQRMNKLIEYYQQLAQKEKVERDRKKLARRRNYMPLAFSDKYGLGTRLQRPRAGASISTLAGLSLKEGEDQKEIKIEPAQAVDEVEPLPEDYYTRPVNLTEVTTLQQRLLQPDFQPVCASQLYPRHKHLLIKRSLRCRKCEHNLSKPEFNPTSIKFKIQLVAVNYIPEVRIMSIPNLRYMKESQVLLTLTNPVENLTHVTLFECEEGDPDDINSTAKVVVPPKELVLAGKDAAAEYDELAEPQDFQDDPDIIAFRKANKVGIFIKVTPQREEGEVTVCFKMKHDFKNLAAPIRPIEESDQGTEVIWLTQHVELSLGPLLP
UniProt Q9UBS8: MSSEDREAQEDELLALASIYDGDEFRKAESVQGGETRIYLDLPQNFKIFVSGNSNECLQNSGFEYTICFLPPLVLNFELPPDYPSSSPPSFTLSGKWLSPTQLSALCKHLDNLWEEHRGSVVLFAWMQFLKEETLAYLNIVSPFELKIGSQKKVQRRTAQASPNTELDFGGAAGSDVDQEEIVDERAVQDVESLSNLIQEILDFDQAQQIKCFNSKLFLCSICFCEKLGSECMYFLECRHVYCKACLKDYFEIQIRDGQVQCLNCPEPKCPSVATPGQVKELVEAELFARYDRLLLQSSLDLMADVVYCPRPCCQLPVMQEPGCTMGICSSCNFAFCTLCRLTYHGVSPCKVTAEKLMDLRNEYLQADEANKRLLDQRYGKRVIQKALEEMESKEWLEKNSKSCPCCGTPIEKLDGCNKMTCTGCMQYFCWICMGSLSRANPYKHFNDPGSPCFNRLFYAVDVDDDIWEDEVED
UniProt Q9P0K8: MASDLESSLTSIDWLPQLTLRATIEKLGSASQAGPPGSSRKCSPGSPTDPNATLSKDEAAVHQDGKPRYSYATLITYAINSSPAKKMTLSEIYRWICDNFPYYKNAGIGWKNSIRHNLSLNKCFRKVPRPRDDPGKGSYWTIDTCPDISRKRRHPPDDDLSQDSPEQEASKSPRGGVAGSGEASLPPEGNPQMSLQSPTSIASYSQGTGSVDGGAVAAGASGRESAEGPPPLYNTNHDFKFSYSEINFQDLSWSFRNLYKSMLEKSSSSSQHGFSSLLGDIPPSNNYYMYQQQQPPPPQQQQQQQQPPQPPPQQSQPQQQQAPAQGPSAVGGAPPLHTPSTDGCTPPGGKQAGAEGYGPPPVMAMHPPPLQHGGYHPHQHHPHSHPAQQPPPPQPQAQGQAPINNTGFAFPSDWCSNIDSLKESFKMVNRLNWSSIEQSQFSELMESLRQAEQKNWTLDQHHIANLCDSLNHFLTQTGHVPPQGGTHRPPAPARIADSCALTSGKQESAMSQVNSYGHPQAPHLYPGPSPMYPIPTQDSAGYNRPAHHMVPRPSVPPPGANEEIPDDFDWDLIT
UniProt Q9UBS4: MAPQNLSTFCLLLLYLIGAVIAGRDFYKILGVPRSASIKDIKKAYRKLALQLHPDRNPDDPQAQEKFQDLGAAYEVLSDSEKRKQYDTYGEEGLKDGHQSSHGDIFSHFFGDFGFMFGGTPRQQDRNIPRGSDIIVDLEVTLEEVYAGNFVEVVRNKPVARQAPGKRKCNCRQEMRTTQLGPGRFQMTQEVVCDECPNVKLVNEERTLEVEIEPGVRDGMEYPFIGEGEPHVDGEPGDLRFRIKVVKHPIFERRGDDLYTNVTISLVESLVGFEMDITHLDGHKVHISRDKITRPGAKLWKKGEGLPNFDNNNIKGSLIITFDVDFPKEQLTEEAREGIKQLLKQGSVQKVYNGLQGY
UniProt Q9UBB9: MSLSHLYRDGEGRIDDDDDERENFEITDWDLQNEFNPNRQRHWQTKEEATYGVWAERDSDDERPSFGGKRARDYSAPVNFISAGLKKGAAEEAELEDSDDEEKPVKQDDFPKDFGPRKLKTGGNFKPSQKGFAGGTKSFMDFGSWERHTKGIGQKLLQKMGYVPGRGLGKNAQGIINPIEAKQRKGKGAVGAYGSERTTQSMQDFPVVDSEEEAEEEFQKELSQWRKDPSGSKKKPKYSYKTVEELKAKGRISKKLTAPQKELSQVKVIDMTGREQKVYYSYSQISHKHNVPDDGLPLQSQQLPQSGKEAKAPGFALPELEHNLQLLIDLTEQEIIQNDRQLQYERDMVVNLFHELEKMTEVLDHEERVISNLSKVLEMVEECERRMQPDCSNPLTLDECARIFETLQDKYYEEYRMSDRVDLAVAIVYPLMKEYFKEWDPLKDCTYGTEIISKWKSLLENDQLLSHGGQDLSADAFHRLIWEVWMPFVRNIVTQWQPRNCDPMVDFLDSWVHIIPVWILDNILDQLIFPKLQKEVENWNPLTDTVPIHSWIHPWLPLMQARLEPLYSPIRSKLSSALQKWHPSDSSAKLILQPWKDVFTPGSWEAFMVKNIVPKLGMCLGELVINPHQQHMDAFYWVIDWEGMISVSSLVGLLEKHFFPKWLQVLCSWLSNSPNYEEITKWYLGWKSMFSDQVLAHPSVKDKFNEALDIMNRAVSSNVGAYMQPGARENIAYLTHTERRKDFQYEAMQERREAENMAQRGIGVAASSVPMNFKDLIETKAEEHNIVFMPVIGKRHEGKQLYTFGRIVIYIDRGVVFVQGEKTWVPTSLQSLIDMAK

Target | log2 fold change
CXXC1 (peptide sequence: RAGSGTGVGAMLAR, peptide start residue: 121) (UniProt Q9P0U4) | 0.432
UniProt Q9UHJ3 (peptide sequence: EVLTLLINAAYKPSR, peptide start residue: 540) | 0.231
UniProt Q9P0J1 (peptide sequence: MLSLPEELAR, peptide start residue: 503) | 0.518
UniProt Q9UHA4 (peptide sequence: ELAPLFEELR, peptide start residue: 109) | 0.00283
ZNF639 (peptide sequence: SQALNVTAQQK, peptide start residue: 182) (UniProt Q9UID6) | 0.1
MBD1 (peptide sequence: DTAVWLPR, peptide start residue: 586) (UniProt Q9UIS9) | -0.355
GRHPR (peptide sequence: ILDAAGANLK, peptide start residue: 67) (UniProt Q9UBQ7) | -0.406
UniProt Q9P260 (peptide sequence: ERDQLLHILFNLIK, peptide start residue: 558) | 0.772
BAZ1B (peptide sequence: NKENGKVENGLGK, peptide start residue: 805) (UniProt Q9UIG0) | -0.567
ABCF2 (peptide sequence: SKLVDEEPQLTKR, peptide start residue: 607) (UniProt Q9UG63) | 0.233
BAHCC1 (peptide sequence: SEAAYGTNTAR, peptide start residue: 719) (UniProt Q9P281) | 0.377
SLAIN2 (peptide sequence: LSLQGHPTDLQTSNVK, peptide start residue: 390) (UniProt Q9P270) | -0.178
MRPL15 (peptide sequence: KYGYILPDITKDELFK, peptide start residue: 239) (UniProt Q9P015) | -0.478
XPO7 (peptide sequence: VLQLMNLTDSR, peptide start residue: 527) (UniProt Q9UIA9) | 0.31
CEP72 (peptide sequence: HLLSPQLVQYQCGDSGK, peptide start residue: 234) (UniProt Q9P209) | -0.584
ADD3 (peptide sequence: EQNRYDLK, peptide start residue: 510) (UniProt Q9UEY8) | 0.229
CCDC88C (peptide sequence: LELELTR, peptide start residue: 328) (UniProt Q9P219) | -0.249
TSKS (peptide sequence: ALTSLVDEVK, peptide start residue: 471) (UniProt Q9UJT2) | 0.424

As a working copy, part of the list above:
Target | log2 fold change
UniProt Q9P0J1 (peptide sequence: MLSLPEELAR, peptide start residue: 503) | 0.518
UniProt Q9UHA4 (peptide sequence: ELAPLFEELR, peptide start residue: 109) | 0.00283
ZNF639 (peptide sequence: SQALNVTAQQK, peptide start residue: 182) (UniProt Q9UID6) | 0.1
MBD1 (peptide sequence: DTAVWLPR, peptide start residue: 586) (UniProt Q9UIS9) | -0.355
GRHPR (peptide sequence: ILDAAGANLK, peptide start residue: 67) (UniProt Q9UBQ7) | -0.406
UniProt Q9P260 (peptide sequence: ERDQLLHILFNLIK, peptide start residue: 558) | 0.772
BAZ1B (peptide sequence: NKENGKVENGLGK, peptide start residue: 805) (UniProt Q9UIG0) | -0.567

Continued.

Target | log2 fold change
CTNNAL1 (peptide sequence: YGYLSLPKPMK, peptide start residue: 534) (UniProt Q9UBT7) | 0.112
DCTN4 (peptide sequence: VLYLVQGEK, peptide start residue: 10) (UniProt Q9UJW0) | -0.227
RNF181 (peptide sequence: YELPTDDDTYEEHRR, peptide start residue: 118) (UniProt Q9P0P0) | 0.172
NCDN (peptide sequence: EGAPSLLCK, peptide start residue: 484) (UniProt Q9UBB6) | 0.583
HDAC6 (peptide sequence: HAQTISGHALR, peptide start residue: 632) (UniProt Q9UBN7) | 0.328
RNF14 (peptide sequence: IYLDLPQNFK, peptide start residue: 38) (UniProt Q9UBS8) | -0.346
GSKIP (peptide sequence: YCLELTEAGLK, peptide start residue: 76) (UniProt Q9P0R6) | 0.0558
FOXJ2 (peptide sequence: LGSASQAGPPGSSR, peptide start residue: 27) (UniProt Q9P0K8) | -0.103
CTSZ (peptide sequence: NVDGVNYASITR, peptide start residue: 70) (UniProt Q9UBR2) | 0.36
PHRF1 (peptide sequence: AQTVQAVR, peptide start residue: 870) (UniProt Q9P1Y6) | 0.303
TMOD2 (peptide sequence: NIDEDELLGKLSEEELK, peptide start residue: 14) (UniProt Q9NZR1) | -0.34
DNAJB11 (peptide sequence: FQMTQEVVCDECPNVK, peptide start residue: 185) (UniProt Q9UBS4) | -0.219
TRPS1 (peptide sequence: RSEDHLTESHQR, peptide start residue: 983) (UniProt Q9UHF7) | -1
APEX2 (peptide sequence: STRPQPSQVGSSR, peptide start residue: 376) (UniProt Q9UBZ4) | -0.281
TFIP11 (peptide sequence: REAENMAQR, peptide start residue: 752) (UniProt Q9UBB9) | 1.24
ZNFX1 (peptide sequence: NGHIYVIGDCGGAMER, peptide start residue: 1851) (UniProt Q9P2E3) | -0.223
CNOT7 (peptide sequence: CNVDLLK, peptide start residue: 67) (UniProt Q9UIV1) | 0.474
BAZ2A (peptide sequence: KGDNDEFLLLCDGCDR, peptide start residue: 1684) (UniProt Q9UIF9) | -0.787

Source: the supplement of paper PMC12819154, “High-throughput peptide-centric local stability assay extends protein–ligand identification to membrane proteins, tissues and bacteria” (Nature Structural & Molecular Biology, 2025)
